From publication PMC12624140, “A conserved chronobiological complex times C. elegans development” (The EMBO Journal, 2025)
Results are given in words; binding and its absence hold for the method and conditions named. Binding seen in cells or lysates may run through a third protein. Some entries that bind do so weakly or less than the wild type. Where a sequence is shown, tags or fusion partners need not be part of it.

Target: T1, 3xFLAG::HA::KIN-20 (endogenously tagged, kin-20(xe328[3xflag::ha::kin-20])) (C. elegans (endogenous in animals)) (UniProt Q20471)
T1 sequence: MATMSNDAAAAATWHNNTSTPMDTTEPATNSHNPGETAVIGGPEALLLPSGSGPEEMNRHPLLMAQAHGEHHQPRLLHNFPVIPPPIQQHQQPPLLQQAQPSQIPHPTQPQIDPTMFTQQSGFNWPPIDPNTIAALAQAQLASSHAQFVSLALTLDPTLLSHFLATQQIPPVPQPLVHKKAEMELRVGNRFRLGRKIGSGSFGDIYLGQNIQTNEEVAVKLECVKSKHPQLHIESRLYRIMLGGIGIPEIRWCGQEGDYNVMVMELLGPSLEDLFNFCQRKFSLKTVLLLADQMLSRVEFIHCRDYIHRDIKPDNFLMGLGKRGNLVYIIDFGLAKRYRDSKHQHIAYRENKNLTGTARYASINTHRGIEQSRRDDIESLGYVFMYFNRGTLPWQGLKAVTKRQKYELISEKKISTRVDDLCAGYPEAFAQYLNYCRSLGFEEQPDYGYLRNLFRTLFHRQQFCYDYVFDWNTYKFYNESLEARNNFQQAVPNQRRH
Experiment: co-IP; anti-HA magnetic beads, extracts of synchronized 3xflag::lin-42; 3xflag::ha::kin-20 animals (32 h at 25 °C); blot probed with anti-FLAG

B1: 3xFLAG::LIN-42 (endogenously tagged, lin-42(xe321[3xflag::lin-42])) (protein, UniProt Q65ZG8 1-597)
chain: MEPAGHSSATHNIVVPNANPTQPQPLAPAMREEGATLSPPNTWSSSSVEFLDDADDNRLLFTCTFTLPHGTVLSSATYADGFHEQYLTIGDNFLARLEPKGQSFILSAAAASVKQRIFARVTMPDGALRACELLCEFETDRAKITVLALRSAFSLQASHVSSNFHVFTFITKHSSTCALTHIDYASIPYLGLLPTDLIGKSLLAFVYSPDVHVVRQAHIDLHNSRGKIVKSIADLRLVAHNGSILRCQTEWSAYVNPWTRKMELVVARHRICSLPIGDSDVISSPPPGIQSNTLPPVMAKTFEDELRTIMNKPVPSTSRHSHHHHHSSLKDQNQGFPANIDLGAYIDKIVEQLVVNSTAQQQQKVAVAAAAAAQAAQAAVVATAQIRKVASAPPTTSTDPPLSYTQINCLENVHRLLKSQSRPESPAKQDEPFDEKKYPPQTPLTREALTLHTKRFEDEYKDTWCRRLKRLSDDVPSSPPAKRTTPIHWTSSSQNHYRTMAPAPPPPPGKNYQITYTPLDDLTDQKSTNTKSDVENVAYPISGSKFSTPMRLSIDGLLPRGATSTGGASPTSGTNSPPVFPKTSSSSSLLMLRDSQN
Question: For B1, which binding is on record?
Answer: binds
